B1: VH5/Vk4 (antibody, IgG1, V domains shown)
VH: QVQLVQSGAEVKKPGSSVKVSCQGSGYSFPTHWITWVRQAPGQGLEWMGTIDPTDSYNFYGPSFQGRVTITADSSTSTAYMELSSLRSEDTAVYYCARDGNYYDSRGYYYDTFDMWGQGTLVTVSS
VL: EIQMTQSPGTLSLSPGERATLSCRASQGISTYLAWYQQKPGQAPRLLIYSASTLESGVPDRFSGSGSGTDFTLTISRLEPEDFATYYCQQADSFPLTFGGGTKVEIK
notes: Full IgG1/kappa expressed in HEK 293 EBNA cells
B2: VH4/Vk2 (antibody, IgG1, V domains shown)
VH: B1 VH with V93M
VL: DIQMTQSPSSLSASVGDRVTITCRASQGISTYLAWYQQKPGKAPKLLIYSASTLESGVPSRFSGSGSGTDFTLTISSLQPEDFATYYCQQADSFPLTFGGGTKVEIK
notes: as for B1
B3: VH2/Vk5 (antibody, IgG1, V domains shown)
VH: EVQLVQSGAEVKKPGESLKISCKGSGYSFPTHWITWVRQMPGKGLEWMGTIDPTDSYNFYGPSFQGQVTISADKSISTAYLQWSSLKASDTAMYYCARDGNYYDSRGYYYDTFDMWGQGTLVTVSS
VL: B1 VL with Q3V, M4L, V58I
notes: as for B1
B4: VH3/Vk2 (antibody, IgG1, V domains shown)
VH: B1 VH with M81L, E82Q, L83W, R87K, S88A, E89S, V93M
VL: B2 VL
notes: as for B1
B5: VH4/Vk3 (antibody, IgG1, V domains shown)
VH: B1 VH with V93M
VL: B1 VL with E1D, T10F
notes: as for B1
B6: VH4/Vk4 (antibody, IgG1, V domains shown)
VH: B1 VH with V93M
VL: B1 VL
notes: as for B1
B7: VH5/Vk5 (antibody, IgG1, V domains shown)
VH: B1 VH
VL: B1 VL with Q3V, M4L, V58I
notes: as for B1
B8: VH5/Vk2 (antibody, IgG1, V domains shown)
VH: B1 VH
VL: B2 VL
notes: as for B1
B9: VH5/Vk3 (antibody, IgG1, V domains shown)
VH: B1 VH
VL: B1 VL with E1D, T10F
notes: as for B1
B10: VH6/Vk0 (antibody, IgG1, V domains shown)
VH: B1 VH with Q23K, G24A, S74K
VL: B2 VL with S10F, K42T, F83S
notes: as for B1
B11: VH4/Vk0 (antibody, IgG1, V domains shown)
VH: B1 VH with V93M
VL: B2 VL with S10F, K42T, F83S
notes: as for B1
B12: VH6/Vk3 (antibody, IgG1, V domains shown)
VH: B1 VH with Q23K, G24A, S74K
VL: B1 VL with E1D, T10F
notes: as for B1
B13: VH6/Vk5 (antibody, IgG1, V domains shown)
VH: B1 VH with Q23K, G24A, S74K
VL: B1 VL with Q3V, M4L, V58I
notes: as for B1
B14: VH6/Vk4 (antibody, IgG1, V domains shown)
VH: B1 VH with Q23K, G24A, S74K
VL: B1 VL
notes: as for B1
B15: VH6/Vk2 (antibody, IgG1, V domains shown)
VH: B1 VH with Q23K, G24A, S74K
VL: B2 VL
notes: as for B1
B16: VH5/Vk0 (antibody, IgG1, V domains shown)
VH: B1 VH
VL: B2 VL with S10F, K42T, F83S
notes: as for B1
B17: VH4/Vk5 (antibody, IgG1, V domains shown)
VH: B1 VH with V93M
VL: B1 VL with Q3V, M4L, V58I
notes: as for B1
B18: VH2/Vk2 (antibody, IgG1, V domains shown)
VH: B3 VH
VL: B2 VL
notes: as for B1
B19: VH0/Vk2 (antibody, IgG1, V domains shown)
VH: B3 VH with E1Q, K19R, K23Q, Q67H, K74S, I76S
VL: B2 VL
notes: as for B1
B20: VH0/Vk0 (antibody, IgG1, V domains shown)
VH: B3 VH with E1Q, K19R, K23Q, Q67H, K74S, I76S
VL: B2 VL with S10F, K42T, F83S
notes: Full IgG1/kappa with the variable domains of 1E4; also called 1E4 antibody variant including the constant domain where the residues were substituted
B21: VH2/Vk0 (antibody, IgG1, V domains shown)
VH: B3 VH
VL: B2 VL with S10F, K42T, F83S
notes: as for B1

Protein sequences, listed by entry. Tags and fused reporters are not part of them. Residues count along the entry.
UniProt P08581, residues 25-932: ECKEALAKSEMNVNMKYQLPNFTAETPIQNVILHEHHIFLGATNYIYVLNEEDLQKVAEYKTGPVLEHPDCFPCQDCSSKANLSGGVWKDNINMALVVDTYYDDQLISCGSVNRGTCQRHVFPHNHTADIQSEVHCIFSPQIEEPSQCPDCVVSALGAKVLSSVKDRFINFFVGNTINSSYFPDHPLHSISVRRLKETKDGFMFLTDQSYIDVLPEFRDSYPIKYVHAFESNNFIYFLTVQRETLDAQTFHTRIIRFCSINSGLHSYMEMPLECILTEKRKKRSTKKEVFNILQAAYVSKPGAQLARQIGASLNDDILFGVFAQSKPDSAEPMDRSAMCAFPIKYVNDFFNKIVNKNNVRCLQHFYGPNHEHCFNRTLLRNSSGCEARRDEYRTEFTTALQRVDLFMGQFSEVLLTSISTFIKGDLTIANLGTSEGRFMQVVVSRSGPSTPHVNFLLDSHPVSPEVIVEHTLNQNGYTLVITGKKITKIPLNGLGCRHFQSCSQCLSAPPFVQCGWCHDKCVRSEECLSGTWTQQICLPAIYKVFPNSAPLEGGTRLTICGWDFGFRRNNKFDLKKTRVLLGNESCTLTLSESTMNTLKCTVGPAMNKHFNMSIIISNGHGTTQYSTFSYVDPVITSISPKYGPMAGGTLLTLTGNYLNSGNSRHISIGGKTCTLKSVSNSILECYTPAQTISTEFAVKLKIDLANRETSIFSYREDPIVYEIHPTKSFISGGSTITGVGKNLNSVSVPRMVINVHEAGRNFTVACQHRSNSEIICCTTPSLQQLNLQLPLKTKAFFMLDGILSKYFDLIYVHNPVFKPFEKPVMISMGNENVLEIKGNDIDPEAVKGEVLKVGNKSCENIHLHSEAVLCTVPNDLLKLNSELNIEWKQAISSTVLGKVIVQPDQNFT

Where a chain is given by its changes, count along the chain named. No constants are given. Whether binding was seen depends on the method and setting. Some results given as binding are weak or reduced against the parent protein; the word gives no strength.

The target in the experiment is T1, human c-Met (Sino Biological) (human, UniProt P08581 25-932, limits assumed).
T1 construct: Analyte in the Biacore assay; also called antigen (c-Met); printed as "human c-Met antibody (Sino Biological, Beijing, China)"
Put plainly: SPR (Biacore T200).
For B1, the binding entry is “binds”.
The result for B2 reads “binds”.
B3: the binding result was “binds”.
The result for B4 reads “binds”; that for B5, “binds”; that for B6, “binds”.
The result for B7 reads “binds”.
The result for B8 reads “binds”; that for B9, “binds”.
As for B10, the binding entry is recorded as “binds”.
For B11 the value was “binds”; for B12, “binds”; for B13, “binds”.
The result for B14 reads “binds”; that for B15, “binds”; that for B16, “binds”.
For B17 the value was “binds”; for B18, “binds”; for B19, “binds”.
Turning to B20, the binding result is reported as “binds”.
For B21 the value was “binds”.
